Reference: patent publication US7371524B2, “Substituted azaporphyrins as fluorescence labels” (priority 2003, dated 2008)

Tests used:
Fetal Bovine Serum = assay: Fluorescence intensity and polarization of free dye in fetal bovine serum (nonspecific binding); details: 25 μl whole serum added to 1 ml BBS
Procedure: (§1) The contrast between the dye structure of the present invention and those structures of previous attempts to use phthalocyanines (Pc's) as labels for fluorescence probes can be appreciated by a test format for NSB in which the free dye is added to serum and the resulting polarization or anisotropy is measured. An increase in polarization results if nonspecific binding occurs because the increase in molecular mass upon binding results in a decrease in the rate of rotary Brownian motion.
(§2) In Table 1 the performance of any one dye can be judged by the changes in fluorescence intensity (I), and/or the changes in polarization (mp, milli-polarization units) as one proceeds horizontally across the table. The “perfect” fluorescence label would have the same values for each of these parameters regardless of the solvent composition.
Abbreviations: mp: […]; TDx Buffer: Commercial buffer used in fluorescence polarization assays; Pc: phthalocyanine; BBS: Borate buffered saline (0.25 M NaCl, 0.0232 M boric acid and 0.00179 M sodium tetraborate. The pH is finally adjusted to 8.0+/−0.05 with 1M NaOH). When serum was tested, 25 μl of whole serum was added to 1 ml of BBS (containing 25 μl of the dye already added). Note that the relative concentrations of the various fluorophores is not known so that comparisons of fluorescence intensities are meaningful only when proceeding in a horizontal direction. An alternative to BBS for manipulating LJB-3 in aqueous solutions is borate buffered KCl (BBKCl) which is made by mixing 33.1 ml of 0.70 M boric acid, 4.0 ml of 0.50 M K2B4O7, 75 ml of 4.0 M KCl and water to make 1 liter: pH ca. 8.1.
(§3) Fluorescence measurements: These were made in a transient state polarization fluorometer (FAST-1, Hyperion, Inc. Miami, Fla.)

Normal Human Serum = assay: Fluorescence intensity and polarization of free dye in normal human serum (nonspecific binding); details: 25 μl whole serum added to 1 ml BBS
Procedure: as §1, §2
Comparison of the behavior in normal human serum to that in glycerol is informative since this provides a measure of the loss of potential polarization change by NSB in the presence of serum. For the five dyes listed the values of the differences between the polarization in glycerol and that in normal human serum are: 60.4, 73.6, 103, 12, 61 and 44.1. These differences show a dramatic beneficial effect of Si as a central atom and also point to LJB-3 as the best choice of the group. The ratio of intensities in glycerol divided by that in normal human serum also is indicative. […]
Abbreviations: mp: […]; TDx Buffer: Commercial buffer used in fluorescence polarization assays; Pc: phthalocyanine; BBS: Borate buffered saline (0.25 M NaCl, 0.0232 M boric acid and 0.00179 M sodium tetraborate. The pH is finally adjusted to 8.0+/−0.05 with 1M NaOH). […] Note that the relative concentrations of the various fluorophores is not known so that comparisons of fluorescence intensities are meaningful only when proceeding in a horizontal direction. […]
as §3

| Substance | Fluorescence Intensity (I), Fetal Bovine Serum (Fetal Bovine Serum) | Polarization (mp), Fetal Bovine Serum (Fetal Bovine Serum) [mp] | Polarization (mp), Normal Human Serum (Normal Human Serum) [mp] |
| --- | --- | --- | --- |
| DiphosphatoSidicarboxyphthalocyanine | 1020 | 64.9 | 60.9 |
| dihydroxy dicarboxy silicon phthalocyanine sulfonate [LJB-3] | 716 | 38.7 | 95.7 |
| Hydroxyaluminumphthalocyaninetrisulfonate [Al Pc trisulfonate, reference compound] | 533 | 60.7 | 224 |
